PubChem BioAssay AID743121, NCATS, 2013
The whole screen tested about 26,000 reagents; this is a random part of them. Over the whole deposit, 167 (0.63%) are marked active. 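Calls are per gene from RSA p-values that are not deposited; an individual active-marked siRNA can sensitise only weakly.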 Unmarked entries are inactive. Reagents against one gene are numbered here.

Aim: 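Partners whose loss is lethal together with topoisomerase I blockade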 (primary screen)
System: MDA-MB-231 cells, a human breast cancer line
Reagents: single siRNA against human genes, 20 nM siRNA (0.8 pmol per well)
Time to read-out: 120 h (drug added 48 h after transfection, read 72 h later)
Treatment: camptothecin 20 nM (about EC30) for 72 h; vehicle 0.1% DMSO in parallel plates
Detection: 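Cell viability by ATP luminescence (CellTiter-Glo) as % of non-targeting siRNA wells, and the log2 ratio of viability without drug over viability with camptothecin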
Direction: log2 vehicle/camptothecin viability: higher = stronger sensitisation to camptothecin; viability with camptothecin and viability without drug: higher = more viable cells
Hit rule: 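Each gene scored by redundant siRNA activity (RSA) over its individual siRNA ratios; a gene is called active at p < 0.001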

Target gene,reagent,log2 vehicle/camptothecin viability,viability with camptothecin (% of control),viability without drug (% of control)
SGCA,1,-0.316,23.4,18.8
SGCA,2,-0.18,66,58.3
SGCA,3,-0.393,57.2,43.6
SGCA,4,-0.576,105,70.6
DNM1,1,-0.119,72.5,66.7
DNM1,2,-0.254,113,94.7
DNM1,3,-0.32,55.3,44.3
DNM1,4,0.0799,80.7,85.3
CACNG6,1,-0.178,85.1,75.3
CACNG6,2,0.000612,91.2,91.2
CACNG6,3,-0.193,89,77.9
CACNG6,4,-0.208,118,102
ABCC3,1,1.07,26.3,55.3
ABCC3,2,0.0514,46,47.7
ABCC3,3,-0.279,44.3,36.5
RPA3,1,-0.0883,60.1,56.5
RPA3,2,-0.132,88.8,81
RPA3,3,-0.182,19.5,17.2
F5,1,-0.278,95.6,78.9
F5,2,-0.329,87.2,69.5
F5,3,-0.326,77.3,61.7
F5,4,-0.131,105,95.5
LRP4,1,0.0419,87.7,90.3
LRP4,2,-0.449,61,44.7
LRP4,3,-0.193,80.6,70.5
LRP4,4,-0.383,52.7,40.4
RAB41,1,-0.0323,93.1,91
RAB41,2,0.144,55,60.8
RAB41,3,-0.117,60.8,56.1
RAB41,4,-0.2,118,103
PCK1,1,0.232,49.8,58.5
PCK1,2,0.425,60,80.6
PCK1,3,-0.277,44.3,36.5
PCK1,4,-0.0912,103,96.4
RGS3,1,0.305,53.4,65.9
RGS3,2,-0.343,34.3,27.1
RGS3,3,-0.443,107,78.5
RGS3,4,-0.41,110,82.5
RGS3,5,-0.0918,107,100
RGS3,6,0.428,18.8,25.3
RGS3,7,-0.103,102,94.8
RGS3,8,-0.342,100,79.2
RNF40,1,-0.139,97.5,88.6
RNF40,2,-0.441,92.7,68.3
RNF40,3,-0.0278,114,112
RNF40,4,-0.415,57.3,42.9

The list goes on; the last 2 above are carried over.
Target gene,reagent,log2 vehicle/camptothecin viability,viability with camptothecin (% of control),viability without drug (% of control)
RNF40,3,-0.0278,114,112
RNF40,4,-0.415,57.3,42.9
NEK8,1,-0.366,67.4,52.3
NEK8,2,-0.426,89.2,66.4
NEK8,3,-0.42,119,88.9
NEK8,4,-0.195,39.3,34.3
TSKS,1,-0.228,55.3,47.2
TSKS,2,-0.493,92,65.3
TSKS,3,0.542,37.6,54.7
TSKS,4,-0.85,16.7,9.25
ESRRG,1,0.147,75.1,83.1
ESRRG,2,-0.173,79.1,70.2
ESRRG,3,0.341,84.9,108
HIPK2,1,0.098,66.4,71.1
HIPK2,2,-0.268,48.2,40.1
HIPK2,3,-0.444,79.3,58.3
HIPK2,4,0.294,16.5,20.2
GPSM2,1,0.0925,76.5,81.6
GPSM2,2,0.203,71.5,82.3
GPSM2,3,-0.285,86,70.6
TOMM22,1,-0.206,96.9,84
TOMM22,2,-0.356,110,86
TOMM22,3,-0.176,90.2,79.8
KCNK10,1,-0.148,60,54.2
KCNK10,2,0.116,82.4,89.3
KCNK10,3,-0.355,42.9,33.6
KCNK10,4,0.433,65,87.8
